This series deals with T1, MBP-SmHsf1 (Schistosoma mansoni) (UniProt G4VTC5).
T1 sequence (looked up, limits assumed): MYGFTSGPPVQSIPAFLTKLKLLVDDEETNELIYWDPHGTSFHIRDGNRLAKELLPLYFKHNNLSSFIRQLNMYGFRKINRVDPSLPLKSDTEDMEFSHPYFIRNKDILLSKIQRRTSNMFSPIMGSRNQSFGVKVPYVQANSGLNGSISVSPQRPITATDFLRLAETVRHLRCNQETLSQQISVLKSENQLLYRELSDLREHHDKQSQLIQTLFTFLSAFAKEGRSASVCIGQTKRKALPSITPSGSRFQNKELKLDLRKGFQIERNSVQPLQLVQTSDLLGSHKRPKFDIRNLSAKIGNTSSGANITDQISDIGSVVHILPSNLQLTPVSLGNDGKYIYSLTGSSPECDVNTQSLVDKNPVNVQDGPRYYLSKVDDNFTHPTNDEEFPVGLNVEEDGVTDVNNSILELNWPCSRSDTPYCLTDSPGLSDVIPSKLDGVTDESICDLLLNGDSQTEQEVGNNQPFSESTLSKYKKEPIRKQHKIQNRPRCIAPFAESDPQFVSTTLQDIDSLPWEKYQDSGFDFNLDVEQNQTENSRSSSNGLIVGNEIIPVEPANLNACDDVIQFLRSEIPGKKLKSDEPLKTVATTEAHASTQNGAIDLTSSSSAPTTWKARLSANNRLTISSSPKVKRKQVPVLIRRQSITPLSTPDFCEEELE
In words: EMSA. Conditions: 3.5 ug protein, 100 fmol probe, poly-dIdC; LightShift EMSA binding buffer with glycerol, MgCl2, poly-dIdC, NP-40 (concentrations, pH and temperature not stated), 30 min; 5% native PAGE, 0.5x TBE; recombinant protein; protein details: N-terminal MBP (pMAL-c5X); label: 5' biotin on forward strand. (In general: In EMSA bound probe runs differently from free probe, usually more slowly.)

For at least one entry, the source does not settle the construct or the ends of the probe. Protein sequences can lack the tags named with them.

Turning to “TTAGAAGCCGCCGAGAGATCTAGAAAGTTCTAGTACAGATCTACGGAAGACTCTCCT (double strand) [oKI068(ds) HSE -112]”, the binding result is on record as “binds”.

These data come from PMC4117452, “Immunolocalization of Anti-Hsf1 to the Acetabular Glands of Infectious Schistosomes Suggests a Non-Transcriptional Function for This Transcriptional Activator”.
